Source: article PMC4834435
Where a chain is given by its changes, count along the chain named. These are yes or no findings as the source states them, for the method shown. For some of these results: In cells and extracts the contact can be indirect. Some results given as binding are weak or reduced against the parent protein; the word gives no strength. Where a sequence is shown, tags or fusion partners need not be part of it. Blank lines part the entries; values can stand above or below the binder they belong to.

What was measured:
[1] = target: T1, His-tagged Orc1 (Orc1-His), wild type (S. cerevisiae) (UniProt P54784); assay: pull-down; MagneHis beads, 1 h, in lysis buffer (50 mM Hepes-KOH pH 7.6, 0.3% NP-40, 400 mM KCl, 17.5 mM imidazole) with nuclease-treated lysate of 293T cells co-overexpressing Orc1-His and Orc2/3/4/5; five washes, elution with 500 mM imidazole; SDS-PAGE, Coomassie
T1 sequence: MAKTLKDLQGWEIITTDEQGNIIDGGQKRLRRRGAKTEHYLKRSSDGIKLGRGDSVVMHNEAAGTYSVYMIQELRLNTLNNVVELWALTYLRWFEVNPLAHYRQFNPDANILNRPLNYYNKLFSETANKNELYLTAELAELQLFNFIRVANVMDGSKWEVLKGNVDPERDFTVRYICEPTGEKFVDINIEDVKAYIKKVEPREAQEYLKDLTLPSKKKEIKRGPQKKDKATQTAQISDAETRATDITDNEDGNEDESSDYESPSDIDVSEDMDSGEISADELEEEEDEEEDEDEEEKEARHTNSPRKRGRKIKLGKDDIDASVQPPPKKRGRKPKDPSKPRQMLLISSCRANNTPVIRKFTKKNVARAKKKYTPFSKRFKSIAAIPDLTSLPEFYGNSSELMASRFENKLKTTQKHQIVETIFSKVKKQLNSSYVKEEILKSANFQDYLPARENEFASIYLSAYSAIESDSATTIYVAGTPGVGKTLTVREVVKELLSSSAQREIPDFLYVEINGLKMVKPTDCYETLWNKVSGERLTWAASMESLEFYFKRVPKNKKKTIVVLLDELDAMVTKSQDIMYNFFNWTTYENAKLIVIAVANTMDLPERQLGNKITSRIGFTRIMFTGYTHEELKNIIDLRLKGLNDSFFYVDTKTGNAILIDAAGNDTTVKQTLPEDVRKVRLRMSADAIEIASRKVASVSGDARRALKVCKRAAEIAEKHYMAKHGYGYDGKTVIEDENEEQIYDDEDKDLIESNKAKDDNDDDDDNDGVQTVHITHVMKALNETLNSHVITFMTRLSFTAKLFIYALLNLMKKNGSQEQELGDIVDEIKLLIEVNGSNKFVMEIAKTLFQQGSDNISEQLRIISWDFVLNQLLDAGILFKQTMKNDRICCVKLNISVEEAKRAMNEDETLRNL

[2] = target: T1, His-tagged Orc1 (Orc1-His), wild type (S. cerevisiae); assay: pull-down; cleared lysates of 293T cells co-overexpressing Orc1-His, Orc2, Orc3, Orc4, Orc5 with or without Orc6; pulldown by the His tag; 9% SDS-PAGE, Coomassie staining
[3] = target: T2, His-tagged Orc1 R367A (S. cerevisiae) (UniProt P54784); assay: HisTrap affinity column chromatography; HisTrap column with linear imidazole gradient elution of lysate of 293T cells co-overexpressing His-tagged Orc1 (wild type or mutant) and Orc2/3/4/5/6; fractions on 9% SDS-PAGE, Coomassie
T2 sequence: T1 sequence with R367A

[4] = target: T3, His-tagged Orc1 K362A (S. cerevisiae) (UniProt P54784); assay: as above
T3 sequence: T1 sequence with K362A

[5] = target: T1, His-tagged Orc1 (Orc1-His), wild type (S. cerevisiae); assay: as above
[6] = target: T2, His-tagged Orc1 R367A (S. cerevisiae); assay: SEC; Superdex 200 in buffer H/0.2 (200 mM KCl) of the peak fractions after His affinity step and SP Sepharose; fractions on 9% SDS-PAGE, Coomassie; subunits co-expressed in 293T cells
[7] = target: T3, His-tagged Orc1 K362A (S. cerevisiae); assay: as above
[8] = target: T1, His-tagged Orc1 (Orc1-His), wild type (S. cerevisiae); assay: as above
[9] = target: T4, His-tagged Orc1 (Orc1-His), wild type (S. cerevisiae), P54784; assay: HisTrap affinity column chromatography; HisTrap column with linear imidazole gradient elution of lysate of 293T cells co-overexpressing His-tagged Orc1 (wild type or mutant) and Orc2/3/4/5/6; fractions on 9% SDS-PAGE, Coomassie; conditions: remark: other sources report otherwise
T4 chain: T1 sequence

[10] = target: T4, His-tagged Orc1 (Orc1-His), wild type …; assay: SEC; Superdex 200 in buffer H/0.2 (200 mM KCl) of the peak fractions after His affinity step and SP Sepharose; fractions on 9% SDS-PAGE, Coomassie; subunits co-expressed in 293T cells; conditions: remark: other sources report otherwise
[11] = target: T4, His-tagged Orc1 (Orc1-His), wild type …; assay: pull-down; cleared lysates of 293T cells co-overexpressing Orc1-His, Orc2, Orc3, Orc4, Orc5 with or without Orc6; pulldown by the His tag; 9% SDS-PAGE, Coomassie staining; conditions: remark: other sources report otherwise

binding [1]: binds
binding [2]: binds
binding [3]: binds
binding [4]: binds
binding [5]: binds
binding [6]: binds
binding [7]: binds
binding [8]: binds
B1: Orc4 (protein, UniProt P54791 1-529)
chain: MTISEARLSPQVNLLPIKRHSNEEVEETAAILKKRTIDNEKCKDSDPGFGSLQRRLLQQLYGTLPTDEKIIFTYLQDCQQEIDRIIKQSIIQKESHSVILVGPRQSYKTYLLDYELSLLQQSYKEQFITIRLNGFIHSEQTAINGIATQLEQQLQKIHGSEEKIDDTSLETISSGSLTEVFEKILLLLDSTTKTRNEDSGEVDRESITKITVVFIFDEIDTFAGPVRQTLLYNLFDMVEHSRVPVCIFGCTTKLNILEYLEKRVKSRFSQRVIYMPQIQNLDDMVDAVRNLLTVRSEISPWVSQWNETLEKELSDPRSNLNRHIRMNFETFRSLPTLKNSIIPLVATSKNFGSLCTAIKSCSFLDIYNKNQLSNNLTGRLQSLSDLELAILISAARVALRAKDGSFNFNLAYAEYEKMIKAINSRIPTVAPTTNVGTGQSTFSIDNTIKLWLKKDVKNVWENLVQLDFFTEKSAVGLRDNATAAFYASNYQFQGTMIPFDLRSYQMQIILQELRRIIPKSNMYYSWTQL

binding [1]: binds
binding [2]: binds
binding [3]: binds
binding [4]: binds
binding [5]: binds
binding [6]: binds
binding [7]: binds
binding [8]: binds
B2: Orc5 (protein, UniProt P50874 1-479)
chain: MNVTTPEVAFREYQTNCLASYISADPDITPSNLILQGYSGTGKTYTLKKYFNANPNLHAVWLEPVELVSWKPLLQAIARTVQYKLKTLYPNIPTTDYDPLQVEEPFLLVKTLHNIFVQYESLQEKTCLFLILDGFDSLQDLDAALFNKYIKLNELLPKDSKINIKFIYTMLETSFLQRYSTHCIPTVMFPRYNVDEVSTILVMSRCGELMEDSCLRKRIIEEQITDCTDDQFQNVAANFIHLIVQAFHSYTGNDIFALNDLIDFKWPKYVSRITKENIFEPLALYKSAIKLFLSTDDNLSENGQGESAITTNRDDLENSQTYDLSIISKYLLIASYICSYLEPRYDASIFSRKTRIIQGRAAYGRRKKKEVNPRYLQPSLFAIERLLAIFQAIFPIQGKAESGSLSALREESLMKANIEVFQNLSELHTLKLIATTMNKNIDYLSPKVRWKVNVPWEIIKEISESVHFNISDYFSDIHE

binding [9]: binds
binding [10]: binds
binding [11]: binds
B3: Orc6, P38826 1-435 (protein)
chain: MSMQQVQHCVAEVLRLDPQEKPDWSSGYLKKLTNATSILYNTSLNKVMLKQDEEVARCHICAYIASQKMNEKHMPDLCYYIDSIPLEPKKAKHLMNLFRQSLSNSSPMKQFAWTPSPKKNKRSPVKNGGRFTSSDPKELRNQLFGTPTKVRKSQNNDSFVIPELPPMQTNESPSITRRKLAFEEDEDEDEEEPGNDGLSLKSHSNKSITGTRNVDSDEYENHESDPTSEEEPLGVQESRSGRTKQNKAVGKPQSELKTAKALRKRGRIPNSLLVKKYCKMTTEEIIRLCNDFELPREVAYKIVDEYNINASRLVCPWQLVCGLVLNCTFIVFNERRRKDPRIDHFIVSKMCSLMLTSKVDDVIECVKLVKELIIGEKWFRDLQIRYDDFDGIRYDEIIFRKLGSMLQTTNILVTDDQYNIWKKRIEMDLALTEPL
